Screen size: about 230,000 compounds; about 310 (0.13%) were called active. Not shown: some 2% with an inconclusive outcome. Calls come from the whole dose curve; as a rule, active = well fitted activation curve with a large enough effect; inconclusive = small, poorly fitted or top-dose-only effect; inactive = no such curve, though single readings can be large or run the other way. Only a part is listed here, and it is no random draw. Where no call is shown, the source filed none. Residues, ends and D or L forms follow the SMILES beside them. *: point of attachment. Cbz = O=C(OCc1ccccc1)*; CH2F = FC*
test: qHTS Multiplex Assay to Identify Dual Action Probes in a Cell Model of Huntington: Cytoprotection (ATP); settings: PC12 HTT-Q103 induced, ATP luminescence, 40 h; cytoprotection (ATP increase): at 56.4 µM (top of the series) unless noted; note: nearly all actives have a fitted effect of over 45% in size;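 for cytoprotection (ATP increase): toxic huntingtin expression switched on by the ecdysone agonist tebufenozide; % of control where 0% means no effect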
How it was run: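 Readout: ATPlite luminescence (ATP level). Model: stable PC12, inducible Htt exon1 Q103-GFP. Inducer: tebufenozide, 100 nM final. Compounds: dose series. No G418 in medium.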
Potency is the fitted concentration of half-maximal effect.

| SMILES | cytoprotection (ATP increase) | Potency |
| --- | --- | --- |
| CCN(CC)CCNC(=O)CSc1c2c(nc3cc(Cl)ccc13)CCCC2 | -150% | – |
| Cc1nnc(SCC2=C(C(=O)O)N3C(=O)C(NC(=O)Cn4cnnn4)[C@@H]3SC2)s1 (stereo partly specified) | -35.1% | – |
| O=C(c1ccncc1)N(c1ccc2oc3c(c2c1)CCCC3)S(=O)(=O)c1cccc([N+](=O)[O-])c1 | 135% [at 10 µM] | – |
| COC(=O)C[C@H](NC(=O)[C@H](C)NC(=O)[C@@H](NC(=O)OCc1ccccc1)C(C)C)C(=O)CF (Cbz-Val-Ala-Asp(OMe)-CH2F) | 89.7% | – |
| C=Cc1c(C)c2cc3[nH]c(cc4nc(cc5nc(cc1[nH]2)C(C)=C5CCC(=O)O)C(CCC(=O)O)=C4C)c(C)c3C=C | -77.1% | – |
| COc1ccc(/C=N/Nc2ncc(Br)cn2)c(OC)c1 | – | active: 3.55 µM |
| CCCCN(C(=O)/C=C/c1ccco1)c1c(N)n(CCC)c(=O)[nH]c1=O | 201% [at 10 µM] | – |
| Cn1c(N)c(C(=O)COC(=O)c2ccc(Cl)nc2)c(=O)n(C)c1=O | – | active: 3.16 µM |
| OCc1ccccc1O[C@H]1OC(CO)C(O)C(O)C1O (stereo partly specified) | -9.91% | – |
| CCN(C(=O)COC(=O)c1ccc(Cl)nc1)C1CCS(=O)(=O)C1 (stereo unspecified) | -32.2% | – |
| COCCn1nc2cc(C(=O)NCc3cc(C(F)(F)F)cc(C(F)(F)F)c3)ccc2c1OC | – | active: 0.708 µM |
| O=C(c1nc2nc(-c3ccccc3)cc(C(F)(F)F)n2n1)N1CCOCC1 | 328% [at 10 µM] | – |
| c1cnc2c(-c3nccc4c3[nH]c3ccccc34)cccc2c1 | -18.7% | – |
| Cc1cc2oc(=O)cc(-c3ccccc3)c2c(C)c1-c1ccc(O)cc1 | 63.2% | – |
| C=C(C(C)=O)C(O)c1ccc([N+](=O)[O-])cc1 (stereo unspecified) | -361% | – |
| Cc1cc(NC(=O)c2ccc(S(=O)(=O)N(C)CC3CCCO3)cc2)no1 (stereo unspecified) | -40.8% | – |
| O=C1OCCN1C(=O)[C@H]1[C@H](c2ccc(F)cc2)C(c2ccc(F)cc2)=NN1c1ccccc1 | -96.4% | – |
| O=C(C[n+]1ccc(Cc2ccccc2)cc1)Nc1ccc([N+](=O)[O-])cc1Cl | 387% [at 10 µM] | – |
| C[C@@](N)(Cc1ccc(O)c(O)c1)C(=O)O | -47% | – |

| SMILES | cytoprotection (ATP increase) | Potency |
| --- | --- | --- |
| CCOC(=O)c1c(NC(=O)C2=C(C)NC(=S)NC2c2ccc(F)cc2)sc(C)c1C (stereo unspecified) | 212% [at 10 µM] | – |
| COC(=O)c1[nH]c(=O)c2ccccc2c1O | 335% [at 10 µM] | – |
| CCN(C(=O)CSc1nc2cc(Cl)ccc2c(=O)n1Cc1ccco1)C1CCS(=O)(=O)C1 (stereo unspecified) | – | active: 2.82 µM |
| Cn1cnc2c1c(=O)[nH]c(=O)n2C | -41.1% | – |
| COCC1=C2c3ccccc3[C@H](C[N+](=O)[O-])C(C(=O)OC)(C(=O)OC)CC2C2C(=O)N(c3ccccc3)C(=O)C2C1 (stereo partly specified) | 28.3% | – |
| CC(C)OC(=O)[C@@H]1CC[C@H](C)[C@@H](CCC[C@@H]2CC=C[C@H](CC#N)O2)O1 | -33.5% | – |
| CC(=O)N[C@H](Cc1c[nH]c2ccccc12)C(N)=O | -34% | – |
| C=C1C(=O)C23C(O)C1CCC2[C@]12COC3(O)C(O)C1C(C)(C)CC[C@H]2O (stereo partly specified) | -338% | – |
| CCC(=O)OC1(C)C(=O)C=C2C=C(c3ccc(C#N)cc3)OC=C2C1=O (stereo unspecified) | -32.1% | – |
| O=S(=O)(c1cccc(S(=O)(=O)N2CCN(c3ncccn3)CC2)c1)N1CCOCC1 | 311% [at 10 µM] | – |
| OC[C@@H]1[C@@H](c2ccc(F)cc2)C(c2ccccc2)=NN1c1ccccc1 | -233% | – |
| Cc1csc(NC(=O)C2CC(=O)N(Cc3ccco3)C2)n1 (stereo unspecified) | – | active: 1.12 µM |
| NC(=O)COC(=O)CCSc1ccc(Cl)cc1 | – | active: 14.1 µM |
| Clc1ccc(N=c2ssnc2Cl)cc1 | 322% [at 10 µM] | – |
| CC[C@H](C)[C@@H](NC(=O)O[C@H]1C(=O)c2ccc(OC)cc2O[C@@H]1c1ccc2c(c1)OCO2)C(=O)OC | -6.34% | – |
| Cc1ccc(OCC(=O)N2CCN(C(=O)c3ccncc3)CC2)cc1 | 338% [at 10 µM] | – |
| COC(=O)Nc1nc2ccc(Sc3ccccc3)cc2[nH]1 | -220% | – |
| CCc1nc(N)nc(N)c1-c1ccc(Cl)cc1 | -97.6% | – |
| O=C(Nc1ccc(F)cc1)c1ccc2nc[nH]c2c1 | 165% [at 10 µM] | – |

Some values from the list.
Under Potency, Cn1c(N)c(C(=O)COC(=O)c2ccc(Cl)nc2)c(=O)n(C)c1=O shows active: 3.16 µM
Under Potency, COCCn1nc2cc(C(=O)NCc3cc(C(F)(F)F)cc(C(F)(F)F)c3)ccc2c1OC shows active: 0.708 µM
Under Potency, NC(=O)COC(=O)CCSc1ccc(Cl)cc1 shows active: 14.1 µM
Under cytoprotection (ATP increase), O=C(c1nc2nc(-c3ccccc3)cc(C(F)(F)F)n2n1)N1CCOCC1 shows 328% [at 10 µM]
Under cytoprotection (ATP increase), Cc1cc2oc(=O)cc(-c3ccccc3)c2c(C)c1-c1ccc(O)cc1 shows 63.2%

Remaining list, next part:

| SMILES | cytoprotection (ATP increase) | Potency |
| --- | --- | --- |
| Cc1ccc2nc3cc([N+](=O)[O-])cc([N+](=O)[O-])c3cc2c1 | 79.4% | – |
| C=C[C@@]1(C)CC(=O)[C@@]2(O)[C@@]3(C)[C@@H](O)CCC(C)(C)[C@@H]3[C@H](OC(=O)CCN(C)C)[C@H](OC(C)=O)[C@@]2(C)O1 | – | active: 39.8 µM |
| CC(C)(C)c1ccc(C(=O)N2CCC(=O)N([C@H](COCc3ccc(Cl)cc3)Cc3ccccc3)CC2)cc1 | -145% [at 40.3 µM] | – |
| O=C(COC(=O)CCSc1ccc(Cl)cc1)NCc1ccccc1Cl | 177% [at 10 µM] | – |
| CC(=O)Oc1cc(-c2coc3cc(OC(C)=O)c(OC(C)=O)c(OC(C)=O)c3c2=O)cc(OC(C)=O)c1OC(C)=O | -65.6% | – |
| COCCn1c(N2CCN(c3ccccc3)CC2)nc2c1c(=O)n(C)c(=O)n2C | – | active: 2 µM |
| C=CCOc1ccc(Cl)cc1CNC1CCCC1 | – | active: 22.4 µM |
| NC(=O)N/N=C/c1c(Sc2nnnn2-c2ccccc2)nc2ccccn2c1=O | – | active: 4.47 µM |
| CC(=C(CCOP(=O)(O)O)SC(=O)c1ccccc1)N(C=O)Cc1cnc(C)nc1N | -65.3% | – |
| O=c1cc(CN2CCN(c3ccccc3F)CC2)c2cc3c(cc2o1)CCCC3 | – | active: 1.12 µM |
| C=C1C2CC[C@]3(CCC4[C@@]5(C)CCC[C@@]4(CN(CCO)C5)[C@@H]3C2)[C@@H]1O (stereo partly specified) | -48.5% | – |
| O=C(NCc1ccccc1)OCCN1CCN(Cc2ccccc2)CCC1=O | -54% | – |
| COc1ccccc1N1CCN(C(c2cccs2)C(C)NC(=O)c2cccnc2)CC1 (stereo unspecified) | – | active: 5.62 µM |
| COc1ccc(Nc2ncnc3c2cnn3-c2cccc(C)c2)cc1OC | 156% [at 10 µM] | – |
| C=CCC(C)(O)c1ccccc1 (stereo unspecified) | 12.2% | – |
| NC(=O)C1CCN(CCC(=O)Nc2ccc(Br)cc2)CC1 | – | active: 0.112 µM |
| C/C=C(/C(=C/C)c1ccc(O)cc1)c1ccc(O)cc1 | -133% | – |
| Cc1nc2ccc(NC(=O)c3ccc(Cl)c([N+](=O)[O-])c3)cc2s1 | 293% [at 10 µM] | – |
